Measurements taken from patent US6489103.
Tags and fusion partners may be left off the protein sequences shown.

Biological target: T1, HaeIII restriction endonuclease (UniProt O68584)
T1 sequence (looked up, limits assumed): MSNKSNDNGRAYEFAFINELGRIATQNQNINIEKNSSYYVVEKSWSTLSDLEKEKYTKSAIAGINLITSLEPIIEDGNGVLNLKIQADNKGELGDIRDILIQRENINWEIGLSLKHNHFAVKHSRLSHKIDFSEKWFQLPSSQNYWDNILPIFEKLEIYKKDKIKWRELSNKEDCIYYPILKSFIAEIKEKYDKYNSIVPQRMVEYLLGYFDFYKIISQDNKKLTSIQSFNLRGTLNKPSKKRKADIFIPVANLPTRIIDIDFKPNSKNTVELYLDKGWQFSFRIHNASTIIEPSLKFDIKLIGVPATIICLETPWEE
Assay: enzyme reaction in vitro
Details: unmethylated DNA cleaved, methylated resistant; 37 C, 5 h; KM of HaeIII 6 nM mentioned without measurement; purified native protein; protein details: NEB; label: DIG and biotin on the full 1194 bp fragment

“AGCTTGCATGCCTGCGGTACCGGCCATGCGCATGGCCTAGCGCATGCGGCCGCTAGCGCG / AATTCGCGCTAGCGGCCGCATGCGCTAGGCCATGCGCATGGCCGGTACCGCAGGCATGCA” was tested, and the “activity on this sequence” value was “active”.
